Assay results as given in publication PMC9811352.
No constants are given. Whether binding was seen depends on the method and setting. In cells and extracts the contact can be indirect. Some entries that bind do so weakly or less than the wild type.

The chains behind the UniProt entries cited, without tags or fusion partners. Where a name states a change or a piece, a line headed by the entry shows the natural chain unless it says otherwise.
UniProt Q9QYC3: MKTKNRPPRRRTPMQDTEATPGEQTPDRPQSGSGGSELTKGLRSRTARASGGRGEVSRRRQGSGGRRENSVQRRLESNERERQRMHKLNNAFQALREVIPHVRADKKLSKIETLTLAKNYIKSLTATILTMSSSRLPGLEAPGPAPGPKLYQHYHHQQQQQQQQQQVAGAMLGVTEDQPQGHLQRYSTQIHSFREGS
UniProt P15806: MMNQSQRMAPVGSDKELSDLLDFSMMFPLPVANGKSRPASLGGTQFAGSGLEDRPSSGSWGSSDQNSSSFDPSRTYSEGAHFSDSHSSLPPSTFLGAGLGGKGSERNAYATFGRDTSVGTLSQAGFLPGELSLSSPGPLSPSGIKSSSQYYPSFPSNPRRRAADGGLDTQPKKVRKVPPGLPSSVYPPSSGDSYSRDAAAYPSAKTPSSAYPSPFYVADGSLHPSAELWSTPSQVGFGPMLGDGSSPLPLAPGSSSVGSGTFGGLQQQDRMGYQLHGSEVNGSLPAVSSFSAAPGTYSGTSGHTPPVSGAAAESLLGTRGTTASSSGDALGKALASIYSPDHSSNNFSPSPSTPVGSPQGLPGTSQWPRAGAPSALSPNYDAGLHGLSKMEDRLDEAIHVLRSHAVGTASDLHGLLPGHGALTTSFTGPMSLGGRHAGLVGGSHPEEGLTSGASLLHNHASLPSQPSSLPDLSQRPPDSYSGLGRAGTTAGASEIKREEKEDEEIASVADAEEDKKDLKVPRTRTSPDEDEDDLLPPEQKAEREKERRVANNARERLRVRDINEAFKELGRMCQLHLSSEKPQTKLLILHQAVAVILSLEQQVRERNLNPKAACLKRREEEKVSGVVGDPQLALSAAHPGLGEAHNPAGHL

Molecular target: Mist1 (Bhlha15) with an N-terminal biotin acceptor sequence, biotinylated in vivo by E. coli BirA (mouse (endogenous in mouse plasmablasts)) (UniProt Q9QYC3)
Assay: pull-down; streptavidin pulldown of biotinylated Mist1 from nuclear extracts of LPS-differentiated Bhlha15 fl/fl Rosa26 BirA/BirA plasmablasts; E2A detected in the precipitate

- binding: binds
Substance: E2A (Tcf3) (from UniProt P15806 1-651)
